Laboratory results taken from publication PMC2994893.
No constants are given. Whether binding was seen depends on the method and setting. In cells and extracts the contact can be indirect. Some binding calls cover weakened binding; strength is not graded here. Sequences can lack the tags named with a protein.

By UniProt entry, the sequences of proteins in these tests, tags left out.
UniProt P06239: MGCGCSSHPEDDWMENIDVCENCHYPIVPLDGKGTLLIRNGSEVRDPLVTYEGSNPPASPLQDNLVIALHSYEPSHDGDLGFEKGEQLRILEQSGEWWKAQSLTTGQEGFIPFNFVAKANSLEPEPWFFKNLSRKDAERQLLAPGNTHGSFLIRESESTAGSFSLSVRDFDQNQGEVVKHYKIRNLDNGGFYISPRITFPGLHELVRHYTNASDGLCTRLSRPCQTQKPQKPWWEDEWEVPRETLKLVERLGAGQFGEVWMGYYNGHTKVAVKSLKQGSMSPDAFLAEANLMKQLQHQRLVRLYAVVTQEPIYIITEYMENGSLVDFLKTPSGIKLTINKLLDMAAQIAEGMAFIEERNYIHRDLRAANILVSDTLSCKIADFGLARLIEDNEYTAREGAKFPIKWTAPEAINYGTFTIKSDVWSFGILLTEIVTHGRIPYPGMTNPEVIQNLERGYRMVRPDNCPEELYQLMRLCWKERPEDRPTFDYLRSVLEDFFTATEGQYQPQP

Target: Lck (human (endogenous in T cell blasts from healthy donors and in Hut-78 cells)) (UniProt P06239)
Test: co-IP; Lck immunoprecipitated (3A5 antibody on beads, 2 h, 4°C) from lysates of Hut-78 cells (parental, control, Hut-LAT-WT, Hut-LAT-4YF) stimulated by CD3 crosslinking; blotted with anti-LAT and anti-pLAT-Y191; weak constitutive association reported without stimulation; lysis in 1% NP-40 and 1% n-dodecyl-β-D-maltoside, 150 mM NaCl, pH 7.5

B1: Myc-tagged LAT (protein, UniProt O43561-2 1-233)
chain: MEEAILVPCVLGLLLLPILAMLMALCVHCHRLPGSYDSTSSDSLYPRGIQFKRPHTVAPWPPAYPPVTSYPPLSQPDLLPIPRSPQPLGGSHRTPSSRRDSDGANSVASYENEEPACEDADEDEDDYHNPGYLVVLPDSTPATSTAAPSAPALSTPGIRDSAFSMESIDDYVNVPESGESAEASLDGSREYVNVSQELHPGAAKTEPAALSSQEAEEVEEEGAPDYENLQELN
For B1, the binding was “binds”.
